This passage reports IC50 results from publication PMC5971037, “Synthesis and evaluation of antimicrobial, antitubercular and anticancer activities of 2-(1-benzoyl-1H-benzo[d]imidazol-2-ylthio)-N-substituted acetamides” (Chemistry Central Journal, 2018).

pIC50: −log10 of the molar value.

The experiment deals with MCF7 (human breast cancer) cell line. Kind of experiment: Sulforhodamine-B (SRB) cytotoxicity assay. It is filed as cell-based. For orientation: In SRB staining, fixed cells bind dye roughly in proportion to their protein.

As to `CC/C(=C(\c1ccccc1)c1ccc(OCCN(C)C)cc1)c1ccccc1` [Tamoxifen, tamoxifen, reference compound], the pIC50 is 5.37.

For orientation: pIC50 means −log10 of the IC50, conventionally taken in molar units. Read a high pIC50 as a small IC50.
